Measured values taken from US20260092868A1, “METHOD FOR SCREENING FOR AUTOPHAGY MODULATOR” (THE ASAN FOUNDATION, priority 2022, published 2026).
For at least one compound, name, drawing or mass did not settle the structure.

Tested on: SNU475 cells
Test: Optical diffraction tomography (ODT) imaging of vesicles and organelles in SNU475 cells
Assay type: cell-based, human
Details: CPA 20 μM, ODT images 10 hours after treatment (FIG. 8A)
Experimental: To confirm changes in vesicles upon treatment with an autophagy modulator, SNU475 cells, which are a human hepatoma cell line, were treated with 10 μM thapsigargin, which is an autophagy activator, and then the changes in vesicles in the cells were examined.
More specifically, a SNU475 cell line was prepared in a TomoDish and the SNU475 cells were treated with 10 μM thapsigargin, and then optical diffraction tomography (ODT) images were generated by using HT-2H fluorescence holotomography (Tomocube).
SNU475 cells were treated with 10 μM thapsigargin to induce ER stress, and then changes in the refractive index and radius of vesicles produced in the cells were measured on the basis of images confirmed in Example 1, and the results thereof are shown in FIG. 2. […]
To confirm statistical changes in the density and refractive index of vesicles and organelles upon treatment with thapsigargin, the densities and refractive indices of cells before and after SNU475 cells were treated with thapsigargin (10 μM) were compared. In addition, to confirm changes in the densities of organelles upon treatment with thapsigargin, the refractive indices of a nucleolus (No), an endoplasmic reticulum (ER), a cytosol (Cyt), and a plasma membrane (PM) were measured. […]

CC(=O)C1=C(O)[C@@H]2[C@H]3c4c[nH]c5cccc(c45)C[C@H]3C(C)(C)N2C1=O [CPA, cyclopiazonic acid]
change in vesicles: the same changes in the vesicles as those upon treatment with thapsigargin occurred
